{"source": "paper PMC10163288", "binders": {"B1": {"name": "il2ra_site2_3nfp_sap_10_mot_HHH_b1_03612_af2_000000124_0001_42_57_H_._HHH_b2_00467_af2_0001_0000300010_0000001_1_0001 (protein)", "chain": "SSSSDEAEEYLRAALALLEELLEQNDPEFARKLAEILARAAESAEDEEVLEAAEEILEELSSSSS"}, "B2": {"name": "il2ra_site1_3nfp_normal_mot_HHH_b1_08723_000000044_0001_1_15_H_._HHH_b1_04612_af2_0001_0000400024_0000001_0_af2pred_0001_af2pred_1 (protein)", "chain": "SSSSSEREELEELLRQAQELFENGNPEEAQKVLEEAIELAEELNNEAMLKFLEAALRAAKSSSSS"}, "B3": {"name": "il2ra_site1_2b5i_sap_15_mot_1dae16775e8f4074d71d019417416b97_0001_af2_000000275_0001_1_12_H_._HHH_b2_05950_0001_0000100008_0000001_0_0001_af2pred_dldesign_0_af2 … (protein)", "chain": "SSSSDPRAELERIVDEIQEKYGLNEGARRILRELADRALEEGRSLEEIRKELEKIAEHLKSSSSS"}, "B4": {"name": "il2ra_site2_2erj_sap_32_mot_3c6e6c7a1689b1ff61bc13c65436e505_0001_1_af2_000000132_0001_16_32_H_._ems_3hM_3349_0001_0000100013_0000001_0_0001 (protein)", "chain": "SSSSDVEELLKEIEELLERGDLERAIHLLTEAVRLALERKDDELIRKVWELMRLIFELAESSSSS"}, "B5": {"name": "il2ra_site1_2b5i_normal_mot_HHH_b2_04353_af2_000000128_0001_1_17_H_._HHH_b1_07800_af2_0001_0000800040_0000001_0 (protein)", "chain": "SSSSDEAFEEVDELFRRASELFRNGNPEEARELIEEALEIAERNNDESARRDLERFLELLKSSSS"}, "B6": {"name": "il2ra_site2_3nfp_normal_mot_HHH_b2_05717_000000156_0001_42_56_H_._HHH_b1_01959_af2_0001_0000400021_0000001_0 (protein)", "chain": "SSSSNERAEEFVRLALWTLKAALEEGDEEVVRRIREFLRSAIHFHEDEEAEELLRELEEEYSSSS"}, "B7": {"name": "il2ra_site2_3nfp_normal_mot_HHH_b1_00086_000000221_0001_38_54_H_._HHH_b2_06926_0001_0000100006_0000001_0 (protein)", "chain": "SSSSDHREEYLRAALLLLELAVEEGNHELARRHTQAARALAESLHDEEILEELERLIEELESSSS"}, "B8": {"name": "il2ra_site2_3nfp_sap_13_mot_HHH_b2_00482_000000184_0001_1_21_H_._49678f45da0a336f03cbe5a93813d6e2_0001_1_af2_0001_0000300012_0000001_0_0001_af2pred_0001_1_af2pr … (protein)", "chain": "SSSSSSSDEEEVEELLEEAKRIDDEHEFFAVLSLAAELAFRSDNEELERLVKEVARRKRSSSSSS"}, "B9": {"name": "il2ra_site1_2b5i_normal_mot_HHH_b1_08075_000000261_0001_1_20_H_._HHH_b1_04452_0001_0000200011_0000001_1_af2pred_dldesign_0_af2pred (protein)", "chain": "SSSLREILEEAERLHKRVYELEEKKNKEEIAKIKERLKELYEKTKEPALKEALEDAEEALKSSSS"}, "B10": {"name": "il2ra_site2_2erj_sap_24_mot_HHH_b1_03026_000000045_0001_39_53_H_._HHH_b1_04773_0001_0000400017_0000001_0_0001_af2pred_0001_1_af2pred_swapped (protein)", "chain": "SSSSDELEQVVEELVEELGLDEEAKKQLEAAVRNLKEAGFSEEMAELYLEIAAENLARLLSSSSS"}, "B11": {"name": "il2ra_site1_3nfp_sap_25_mot_HHH_b1_03725_af2_000000070_0001_39_57_H_._HHH_b1_00503_af2_0001_0000100001_0000001_0_0001 (protein)", "chain": "SSSSDELAREIDRLLKRLAKAIREGDEELIEKLEERIEELIEEANDELAQRLLEQLRERLSSSSS"}, "B12": {"name": "il2ra_site2_2erj_sap_27_mot_HHH_b1_06157_000000296_0001_22_38_H_._HHH_b2_02108_0001_0000700018_0000001_0_0001 (protein)", "chain": "SSSSDERLKELYELAVKITHALARNDEELLKELIKEAKELAEELDSPTAREIVESLERLLKSSSS"}, "B13": {"name": "il2ra_site2_3nfp_sap_12_mot_HHH_b1_06586_000000201_0001_1_18_H_._HHH_b2_06897_af2_0001_0000300008_0000001_0_0001 (protein)", "chain": "SSSSSSDREERAQELLEEAKHVDEEEARFLVMAAANLAWELGDEELAKEIRELIQELWSSSSSSS"}, "B14": {"name": "il2ra_site1_2b5i_normal_mot_HHH_b1_02271_000000068_0001_1_16_H_._HHH_b2_00382_0001_0000200012_0000001_0_af2pred_dldesign_0_af2pred (protein)", "chain": "SSSSSDPLAEARRVVEEARELAKTDRRAALELLNEAYKYFGEKDDEEAMDLLEEAAREILSSSSS"}, "B15": {"name": "il2ra_site2_3nfp_sap_16_mot_HHH_b2_08046_000000127_0001_20_37_H_._8323a3979fe47b92d96c7c6278d960ae_0001_0001_0000100012_0000001_0_0001_af2pred_0001_af2pred_swap … (protein)", "chain": "SSSSDEAERLVERAEELLEEGDLEEAERILKEARKQALEKGDHELFARILELLELLERLGSSSSS"}, "B16": {"name": "il2ra_site2_3nfp_normal_mot_HHH_b1_00660_af2_000000090_0001_40_57_H_._HHH_b1_02871_0001_0000400018_0000001_0 (protein)", "chain": "SSSSSDEEELEELKERLEELERRGDEEKIEKVAQRLFSLAAQLNDFEAFALAQEVRARLLSSSSS"}, "B17": {"name": "il2ra_site1_3nfp_sap_16_mot_HHH_b2_05538_af2_000000197_0001_20_36_H_._a018c15928f351c43b00908d5a7ba3e0_0001_0001_0000100019_0000001_0_0001 (protein)", "chain": "SWKALERLLEQALRVPPEEAEEILREVREEAGGDPKRILELLLKLAEELGNEAARKHLELTLRQW"}, "B18": {"name": "il2ra_site1_3nfp_sap_16_mot_HHH_b1_05070_af2_000000282_0001_43_57_H_._HHH_b2_06865_0001_0000600040_0000001_0_0001 (protein)", "chain": "SAEEAVEWLVRQAVERNNPELLRRILRALEWFHGDPEEAEEALHELIEKVLGDPEEAERLVREAK"}, "B19": {"name": "il2ra_site1_1z92_sap_13_mot_15580975d4dd9e5733d814788d639b64_0001_000000137_0001_1_14_H_._HHH_b2_03613_af2_0001_0000600030_0000001_0_0001_af2pred_0001_af2pred_1 (protein)", "chain": "NKFEEIIKKNLRSIDDPVAEELLRLLEELERGELPPEELEELLERILKETGNPLAKLVIDYLRRR"}}, "note": "Some of the results follow.", "data": [{"biological_target": "il2ra, P01589", "test": "yeast display titration", "values": [{"binder": "B1", "apparent Kd": "inactive: no binding seen"}, {"binder": "B2", "apparent Kd": "inactive: no binding seen"}, {"binder": "B3", "apparent Kd": "inactive: no binding seen"}, {"binder": "B4", "apparent Kd": "inactive: no binding seen"}, {"binder": "B5", "apparent Kd": "inactive: no binding seen"}, {"binder": "B6", "apparent Kd": "inactive: no binding seen"}, {"binder": "B7", "apparent Kd": "inactive: no binding seen"}, {"binder": "B8", "apparent Kd": "inactive: no binding seen"}, {"binder": "B9", "apparent Kd": "inactive: no binding seen"}, {"binder": "B10", "apparent Kd": "inactive: no binding seen"}, {"binder": "B11", "apparent Kd": "inactive: no binding seen"}, {"binder": "B12", "apparent Kd": "inactive: no binding seen"}, {"binder": "B13", "apparent Kd": "inactive: no binding seen"}, {"binder": "B14", "apparent Kd": "inactive: no binding seen"}, {"binder": "B15", "apparent Kd": "inactive: no binding seen"}, {"binder": "B16", "apparent Kd": "inactive: no binding seen"}, {"binder": "B17", "apparent Kd": "inactive: no binding seen"}, {"binder": "B18", "apparent Kd": "inactive: no binding seen"}, {"binder": "B19", "apparent Kd": "inactive: no binding seen"}]}]}
